The structures appear in SMILES notation. The list shows a part of the results. Some salts and complexes are drawn in separate pieces, as the source files them; their charges need not balance.

The assay is described as follows: selective activators of receptor GPR55 – imaging, U2OS cells, beta-arrestin-GFP redistribution, primary screen (AID 1961).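 Further: U2OS osteosarcoma cells stably expressing GPR55 and beta-arrestin-GFP.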 Conditions: measured here: cytotoxicity, cells analyzed, at 10 µM.
With `CP(=O)(Nc1ccc(Cl)cc1Cl)Oc1ccccc1` (stereo not drawn), the cell count was 227 cells.

As for `CP(=O)(OCCOc1ccccc1)OCCOc1ccccc1`, the cell count turned out to be 221 cells. Compound `Nc1cccc2ccc([As](=O)(O)O)cc12` returned a cell count of 325 cells.

Consider `CCN(N=Nc1nonc1N)c1nonc1N`, for which the cell count was 302 cells.

In the case of `Cc1ccc(N/C(=N/P(=O)(N2CCOCC2)N2CCOCC2)N2CCOCC2)cc1`, the cell count was 316 cells. `COc1ccccc1OP(C)(=O)Nc1ccc(Br)cc1` (stereo not drawn): the cell count is 337 cells. The value for `NC(=O)c1cc([N+](=O)[O-])cc([N+](=O)[O-])c1N` was 229 cells; that for `CN1CCCC(OC(=O)C(c2ccccc2)c2ccccc2)C1` (stereo not drawn) was 291 cells; that for `Clc1ccc(Cl)c(NC2=NCC(CBr)S2)c1` (stereo not drawn) was 227 cells. `CN(C)CCOC(=O)C(O)(c1ccccc1)C1CCCC1` (stereo not drawn) registered a cell count of 369 cells. Consider `Cc1ccc(OP(=O)(Nc2nccs2)Oc2ccc(C)cc2)cc1`, for which the cell count was determined as 339 cells.

Regarding `COc1ccccc1OP(=O)(Nc1ccc(C)cn1)Oc1ccccc1OC`, the cell count was 372 cells. In the case of `COc1ccc(OP(C)(=O)Nc2ccccn2)cc1` (stereo not drawn), the cell count came out at 488 cells.

As to `O=C(NC(Sc1ccncn1)C(Cl)(Cl)Cl)c1ccccc1` (stereo not drawn), the cell count worked out at 324 cells. On to `Cc1c2non([O-])c-2c(C)[n+](=O)[n+]1[O-]`, for which the cell count was 320 cells. `Oc1ccccc1CNc1ccccn1` displayed a cell count of 349 cells. In turn, `Cc1c(NP(C)(=O)Oc2ccc(C(C)C)cc2)c(=O)n(-c2ccccc2)n1C` (stereo not drawn) returned a cell count of 396 cells.

For the compound `Nc1cc(N)c2nonc2c1[N+](=O)[O-]`, the cell count was found to be 332 cells.

In turn, `CC(C)CC(=O)NC(Sc1ccc(Cl)cc1)C(Cl)(Cl)Cl` (stereo not drawn) gave a cell count of 390 cells. As for `O=[N+]([O-])c1cc([N+](=O)[O-])c(Nc2ccccn2)c([N+](=O)[O-])c1`, the cell count amounted to 368 cells.

As for `CCc1ccc(OP(C)(=O)O)cc1`, the cell count came out at 339 cells. Take `COc1ccccc1OP(C)(=O)Nc1ccc(C)cc1C` (stereo not drawn): the cell count came to 364 cells. Turning to `CP(=O)(Nc1ccccn1)Oc1ccccc1` (stereo not drawn), the cell count stood at 368 cells. Next, `COc1ccc(OP(C)(=O)Nc2ccc(Br)cc2)cc1` (stereo not drawn): 351 cells; `COc1ccc(C2=NCC(CBr)S2)cc1` (stereo not drawn): 261 cells. On to `CCN(CC)CC(O)COC(=O)C(O)(c1ccccc1)C1CCCCC1` (stereo not drawn), for which the cell count is 379 cells. In turn, `CCc1ccc(OP(C)(=O)Nc2cccnc2)cc1` (stereo not drawn) yielded a cell count of 244 cells.

With `CCc1nc2c(n1)c1c(non1O)c1c2no[n+]1[O-]`, the cell count is 368 cells. `O=[N+]([O-])c1cc([N+](=O)[O-])c(CCNc2ccccc2)c([N+](=O)[O-])c1` gave a cell count of 301 cells. Consider `CP(=O)(Oc1ccccc1)N1CCOC1=O` (stereo not drawn), for which the cell count came to 256 cells.

In the case of `Cc1ccc(NP(=O)(Oc2ccccc2)Oc2ccccc2)nc1`, the cell count came out at 285 cells. The value for `O=C(OCCCN1CCCC1)C(O)(c1ccccc1)C1CCCCC1` (stereo not drawn) was 316 cells. Next, `O=[N+]([O-])c1cccc2n[nH]nc12`: 406 cells.

`CC(=O)N1C2C3N(C(C)=O)C1C1N(C(C)=O)C(C(N1C(C)=O)N3C(C)=O)N2C(C)=O` displayed a cell count of 368 cells.

The compound `COc1ccccc1OP(C)(=O)Nc1c(C)n(C)n(-c2ccccc2)c1=O` (stereo not drawn) showed a cell count of 324 cells. With `CP(=O)(Nc1ccc(Cl)cc1)Oc1ccc(F)cc1` (stereo not drawn), the cell count was found to be 375 cells. Next, `CCN(/C(=N/P(=O)(N1CCOCC1)N1CCOCC1)N1CCOCC1)c1ccc(OC)cc1`: 256 cells; `C[N+]1=C2C=CC=CC=C2SC12C([N+](=O)[O-])=CC([N+](=O)[O-])=C[C-]2[N+](=O)[O-]` (stereo not drawn): 338 cells. In turn, `COc1ccccc1OP(C)(=O)Nc1ccccc1Br` (stereo not drawn) showed a cell count of 266 cells.

Compound `CC(C)(C)c1ccc(OP(C)(=O)O)cc1` gave a cell count of 371 cells.

For the compound `Nc1ccc([As](=O)(O)c2ccc(N)cc2)cc1`, the cell count came to 348 cells.

Regarding `CC1CCN(C(=O)Oc2c(Cl)cc(Cl)c3cccnc23)CC1`, the cell count worked out at 371 cells.

`CN(C)C(=O)OCCc1n(C)cc[n+]1C` gave a cell count of 363 cells. `CN(C)C(=O)c1c([N+](=O)[O-])cc([N+](=O)[O-])cc1[N+](=O)[O-]`: the cell count is 272 cells. `CC(C)=N/N=C(\N)N[N+](=O)[O-]` had a cell count of 411 cells. With `CP(=O)(OC12CC3CC(CC(C3)C1)C2)OC12CC3CC(CC(C3)C1)C2`, the cell count came to 381 cells. The value for `O=C(Nc1cc([As](=O)(O)O)ccc1O)c1ccccc1` was 333 cells.

As for `CCOC(=O)c1ccc(NP(C)(=O)Oc2ccc(Cl)cc2)cc1` (stereo not drawn), the cell count was 334 cells. Consider `O=[N+]([O-])c1ncn(CCn2ncnc2[N+](=O)[O-])n1`, for which the cell count was 214 cells.

`CC(C)(C)C(=O)NC(Sc1ccncn1)C(Cl)(Cl)Cl` (stereo not drawn) registered a cell count of 339 cells. For the compound `O=C(O)CNc1ccc([As](=O)(O)O)cc1`, the cell count was 385 cells.

In the case of `O=[N+]([O-])c1cccc(NC2=NCC(CBr)S2)c1` (stereo not drawn), the cell count was found to be 325 cells.

`O=P(Nc1ccccn1)(c1ccc(Br)cc1)c1ccc(Br)cc1` had a cell count of 452 cells. The value for `CN(C)C1(CNC(=O)c2ccc(Cl)c(S(N)(=O)=O)c2)CCCCC1` was 364 cells; that for `COc1ccc(OP(C)(=O)Nc2cccc(Br)c2)cc1` (stereo not drawn) was 347 cells; that for `COc1ccc(NP(C)(=O)Oc2ccccc2OC)cc1` (stereo not drawn) was 235 cells. Next, `C[C@H]1OP(=O)(Oc2ccccc2)[C@H](O)[C@H](O)[C@H]1N=[N+]=[N-]` (stereo partly drawn): 381 cells; `CN(C)CCOC(=O)C(O)(c1ccccc1)C1CCCCC1` (stereo not drawn): 320 cells; `O=P(Nc1nc2ccccc2s1)(c1ccccc1)c1ccccc1`: 346 cells. Take `O=[N+]([O-])c1cc([N+](=O)[O-])c(NCC2CCS(=O)(=O)C2)c([N+](=O)[O-])c1` (stereo not drawn): the cell count worked out at 246 cells. `Cc1cc(-c2cccc3ccccc23)c(C)cn1.O=[N+]([O-])c1cc([N+](=O)[O-])c(O)c([N+](=O)[O-])c1` returned a cell count of 396 cells.

The compound `O=[As](O)(c1ccccc1)c1ccc(O)cc1` came in with a cell count of 382 cells. The value for `O=[N+]([O-])c1ccc(O)c(/C=N/Nc2ccc([N+](=O)[O-])cc2[N+](=O)[O-])c1` was 402 cells; that for `O=[N+]([O-])c1ncn(CCn2cnc([N+](=O)[O-])n2)n1` was 376 cells; that for `CC(=O)NC(SC(=S)N(C)C)C(Cl)(Cl)Cl` (stereo not drawn) was 353 cells. Next, `O=[N+]([O-])c1ccc(OP2(=O)COCCO2)cc1` (stereo not drawn): 400 cells; `O=C(OC1CN2CCC1CC2)c1cccc(Cl)c1` (stereo not drawn): 334 cells. `C(Cc1nn[nH]n1)Cc1nn[nH]n1` came in with a cell count of 341 cells.

Consider `Nc1ccc([As](=O)(O)c2ccc([N+](=O)[O-])cc2)cc1`, for which the cell count came to 364 cells. In turn, `CC(C)C(=O)NC(Sc1ccccc1)C(Cl)(Cl)Cl` (stereo not drawn) showed a cell count of 299 cells. The value for `O=P(Nc1nccs1)(c1ccccc1)c1ccccc1` was 364 cells. On to `CP(=O)(Nc1ccc(SC(F)(F)F)cc1)Oc1ccc(F)cc1` (stereo not drawn), for which the cell count is 373 cells. Compound `c1nnnn1CCn1cnnn1` displayed a cell count of 331 cells.

For `CCOP(C)(=S)SCC(=O)NC(C)(CC)C(=O)O` (stereo not drawn), the cell count was 272 cells. On to `CP(=O)(Nc1ccc2c(c1)OCCO2)Oc1ccccc1` (stereo not drawn), for which the cell count is 270 cells. Compound `Cc1ccccc1NP(C)(=O)Nc1ccccc1C` showed a cell count of 387 cells. `CCOc1ccc(C2=NCC(CBr)S2)cc1` (stereo not drawn): the cell count was found to be 387 cells. `O=P1(Nc2nc3ccc(Cl)cc3s2)COc2ccccc2O1` (stereo not drawn) registered a cell count of 372 cells.

`CC(C)c1ccc(OP(C)(=O)Nc2ccc(SC(F)(F)F)cc2)cc1` (stereo not drawn) came in with a cell count of 313 cells.

As for `CC(C)(C)C(=O)NC(Sc1ccccc1)C(Cl)(Cl)Cl` (stereo not drawn), the cell count is 270 cells. Compound `CP(=O)(Nc1ccccc1F)Oc1ccccc1` (stereo not drawn) returned a cell count of 296 cells. In the case of `C[C@H]1OP(=O)(Oc2ccccc2)C[C@@H]2O[C@@H]21` (stereo partly drawn), the cell count amounted to 383 cells. For `C[C@@H]1C=CCP(=O)(Oc2ccccc2)O1` (stereo partly drawn), the cell count came out at 397 cells. Next, `O=C(OCCN1CCN(CCOCc2ccccc2)CC1)C(O)(c1ccccc1)c1ccccc1`: 337 cells. Turning to `O=C(OC1CN2CCC1CC2)c1ccc([N+](=O)[O-])cc1` (stereo not drawn), the cell count was determined as 313 cells. The value for `CC(=O)c1ccc(N2CC2c2ccncc2)cc1` (stereo not drawn) was 355 cells. `CC(=O)Nc1ccc(Oc2c([N+](=O)[O-])cc([N+](=O)[O-])cc2[N+](=O)[O-])cc1` returned a cell count of 257 cells.

On to `CC(=O)Nc1ccc([As](=O)(O)O)c(O)c1`, for which the cell count came to 383 cells. `COc1ccc2c(c1O)-c1c(O)c(OC)cc3c1[C@H](C2)[N+](C)(C)CC3.O=[N+]([O-])c1cc([N+](=O)[O-])c([O-])c([N+](=O)[O-])c1[O-]` registered a cell count of 348 cells. The value for `CCOC(=O)NC(Sc1ccccc1)C(Cl)(Cl)Cl` (stereo not drawn) was 375 cells; that for `Cc1ccc(NP(=O)(Oc2cccc(C)c2)Oc2cccc(C)c2)nc1` was 390 cells. As to `c1ccc(-c2nn[nH]n2)c(-c2nn[nH]n2)c1`, the cell count stood at 340 cells. For the compound `CCNC(=S)/N=C(\N)N[N+](=O)[O-]`, the cell count came to 397 cells. Consider `O=C(NC1CCS(=O)(=O)C1)NP(=S)(Oc1ccccc1)Oc1ccccc1` (stereo not drawn), for which the cell count was 254 cells. Compound `COc1ccc(OP(C)(=O)Nc2ccc(SC(F)(F)F)cc2)cc1` (stereo not drawn) came in with a cell count of 261 cells. `CCOC(=O)c1ccc(NP(C)(=O)Oc2ccc(F)cc2)cc1` (stereo not drawn) returned a cell count of 389 cells. For the compound `CCN(CC)CCCOC(=O)C(O)(c1ccccc1)C1CCCCC1` (stereo not drawn), the cell count was 367 cells. In turn, `CCC(=O)N1C2C3N(C(=O)CC)C1C1N(C(=O)CC)C(C(N1C(=O)CC)N3C(=O)CC)N2C(=O)CC` showed a cell count of 395 cells. The compound `O=C(OC1CN2CCC1CC2)c1ccccc1` (stereo not drawn) registered a cell count of 272 cells. For `Cc1ccc(OP(=O)(Nc2ccccn2)Oc2ccc(C)cc2)cc1`, the cell count is 229 cells.

In the case of `CC(=O)NC(SC(=S)N(CC(C)C)CC(C)C)C(Cl)(Cl)Cl` (stereo not drawn), the cell count was 319 cells. As for `COC(=O)c1cc2c(s1)N=C(c1ccccc1)N(C)P2(=O)N1CCOCC1` (stereo not drawn), the cell count was 436 cells. Compound `CCCCCOc1ccc(NP(C)(=O)Oc2ccc(Cl)cc2Cl)cc1` (stereo not drawn) returned a cell count of 373 cells.

As for `O=c1c2cc([N+](=O)[O-])ccc2[nH]c2c([N+](=O)[O-])cc([N+](=O)[O-])cc12`, the cell count was determined as 339 cells. The compound `O=[N+]([O-])c1cc([N+](=O)[O-])c(OC2CCCCC2O)c([N+](=O)[O-])c1` (stereo not drawn) yielded a cell count of 431 cells. The value for `CN(C)C(=O)Oc1noc2ccccc12` was 315 cells; that for `Cc1ccccc1OP(=O)(Nc1ccccn1)Oc1ccccc1C` was 336 cells.

`CP(=O)(Nc1ccccc1)Oc1ccc(F)cc1` (stereo not drawn) came in with a cell count of 379 cells.

These data come from PubChem BioAssay AID1961 (Sanford-Burnham Center for Chemical Genomics, 2009).
